From patent US20110111411
For some assays here: No signal at the amounts used counts as a negative. For some assays here: Tags and fusion partners may be left off the protein sequences shown. For some assays here: For at least one entry, the source does not settle the construct or the ends of the probe.

The chains behind the UniProt entries cited, without tags or fusion partners. Residues count along the entry.
UniProt Q04206, whole entry: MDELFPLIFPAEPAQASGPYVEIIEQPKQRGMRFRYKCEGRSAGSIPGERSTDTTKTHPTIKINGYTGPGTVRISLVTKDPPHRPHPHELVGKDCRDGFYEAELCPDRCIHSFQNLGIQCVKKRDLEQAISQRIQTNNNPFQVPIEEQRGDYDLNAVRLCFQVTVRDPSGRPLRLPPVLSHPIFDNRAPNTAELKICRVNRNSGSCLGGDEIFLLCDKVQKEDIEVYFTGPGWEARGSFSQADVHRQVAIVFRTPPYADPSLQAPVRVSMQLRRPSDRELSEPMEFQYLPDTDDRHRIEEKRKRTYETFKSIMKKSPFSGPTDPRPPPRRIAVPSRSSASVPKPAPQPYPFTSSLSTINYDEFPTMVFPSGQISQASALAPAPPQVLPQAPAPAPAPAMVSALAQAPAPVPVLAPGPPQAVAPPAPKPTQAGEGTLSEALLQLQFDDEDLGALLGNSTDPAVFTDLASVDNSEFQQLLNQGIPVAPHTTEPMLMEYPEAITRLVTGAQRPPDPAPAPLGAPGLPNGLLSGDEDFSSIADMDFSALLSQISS
UniProt P35222, 2-781: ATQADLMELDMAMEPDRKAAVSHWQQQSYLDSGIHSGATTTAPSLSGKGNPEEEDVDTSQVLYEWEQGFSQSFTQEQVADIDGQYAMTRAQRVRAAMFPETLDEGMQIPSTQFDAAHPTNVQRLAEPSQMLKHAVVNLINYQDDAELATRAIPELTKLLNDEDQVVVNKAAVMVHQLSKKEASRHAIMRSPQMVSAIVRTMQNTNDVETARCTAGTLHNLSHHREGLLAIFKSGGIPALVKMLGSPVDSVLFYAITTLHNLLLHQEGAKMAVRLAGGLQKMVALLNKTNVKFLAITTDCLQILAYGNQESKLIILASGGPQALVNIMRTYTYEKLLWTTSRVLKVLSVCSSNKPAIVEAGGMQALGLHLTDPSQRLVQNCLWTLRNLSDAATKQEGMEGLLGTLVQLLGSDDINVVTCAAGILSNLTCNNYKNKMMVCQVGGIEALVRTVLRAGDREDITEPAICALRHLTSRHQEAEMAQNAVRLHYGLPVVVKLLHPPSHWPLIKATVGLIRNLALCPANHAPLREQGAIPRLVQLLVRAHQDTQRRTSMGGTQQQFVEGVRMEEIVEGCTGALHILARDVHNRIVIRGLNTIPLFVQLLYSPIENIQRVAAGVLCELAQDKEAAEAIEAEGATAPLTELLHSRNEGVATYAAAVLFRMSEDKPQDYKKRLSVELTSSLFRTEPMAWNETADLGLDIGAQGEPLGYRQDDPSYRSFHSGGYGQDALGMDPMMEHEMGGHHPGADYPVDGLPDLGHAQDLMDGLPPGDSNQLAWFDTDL

Assays:
Assay in all cases: activity in cells
[1] = target: NF-kB p65 (endogenous, HEK-293) (UniProt Q04206); conditions: protein in cells
[2] = target: T1, MS2 coat protein (MS2-DsRed) (Bacteriophage MS2) (UniProt P03612)
T1 sequence (looked up, limits assumed): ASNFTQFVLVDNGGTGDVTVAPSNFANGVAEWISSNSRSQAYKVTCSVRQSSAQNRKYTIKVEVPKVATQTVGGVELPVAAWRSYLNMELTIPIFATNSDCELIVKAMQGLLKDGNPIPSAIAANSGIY

[3] = target: T2, MS2 coat protein (MS2-Venus) (Bacteriophage MS2) (UniProt P03612); conditions: MS2Δ-3-Puma device; insignificant response; protein in cells; protein details: FLAG-SV40 NLS N-terminal, Venus fusion; variant of MS2 aptamer; counted as no effect
T2 sequence (looked up, limits assumed): T1 sequence (looked up, limits assumed)

[4] = target: T3, NF-kB p50 (endogenous, HEK-293) (UniProt P19838); conditions: protein in cells
T3 sequence (looked up, limits assumed): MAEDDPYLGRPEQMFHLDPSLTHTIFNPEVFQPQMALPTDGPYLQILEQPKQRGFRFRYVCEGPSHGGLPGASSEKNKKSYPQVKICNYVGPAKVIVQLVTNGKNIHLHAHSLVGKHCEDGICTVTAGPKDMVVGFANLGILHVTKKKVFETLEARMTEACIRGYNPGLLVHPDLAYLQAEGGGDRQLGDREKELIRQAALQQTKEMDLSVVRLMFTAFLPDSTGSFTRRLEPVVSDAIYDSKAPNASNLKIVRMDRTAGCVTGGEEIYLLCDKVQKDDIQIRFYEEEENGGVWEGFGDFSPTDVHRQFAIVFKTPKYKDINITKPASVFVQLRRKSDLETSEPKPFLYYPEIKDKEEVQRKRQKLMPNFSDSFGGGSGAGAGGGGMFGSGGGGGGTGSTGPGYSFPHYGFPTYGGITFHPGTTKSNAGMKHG

NF-kB p50 (p50-DsRed) = conditions: protein in cells; dose not given here
[5] = target: beta-catenin (endogenous, HEK-293) (UniProt P35222); conditions: mutant control; response specific to wild-type aptamer; protein in cells; variant of beta-catenin aptamer; dose not given here
[6] = position 3, TNF-α 20 ng/ml, decreased GFP (P<0.05) and exon exclusion

Sequence: ACUCGCCUUAAGCUGGGUGAUGGGAAUGUGUUUACCCCGCCUAAAUGCGUCCAAAAUAAGCACGACAGGAAGAACAUUCGAAG [NF-kB p65Δ aptamer]
- functional effect of the aptamer ([1]; mutant control, response specific to wild-type aptamer, variant of NF-kB p65 aptamer, dose not given here): not active

Sequence: CGUACACCAUCAGGGUACG [MS2 aptamer]
- functional effect ([2]; aptamer in SMN1 mini-gene introns, GFP/splicing change in HEK-293, 6 positions increased and 3 decreased fluorescence (P<0.05), about 2-4 fold, protein in …): active

Sequence: CGUACCCAUCAGGGUACG [MS2Δ aptamer]
- functional effect (% increase in apoptosis) [3]: 10
- functional effect ([2]; mutant aptamer control, effects specific to wild-type aptamer, protein in cells, variant of MS2 aptamer): not active

Sequence: CGUAGCCGGUUGGAAUUUUGUCAAAGUCCUACG [NF-kB p50(1)Δ and p50(2)Δ aptamer]
- functional effect of the aptamer ([4]; mutant control, response specific to wild-type aptamer, variant of NF-kB p50(1) aptamer, dose not given here): not active

Sequence: GAAGCUUACAAGAAGGACAGCACGAAUAAAACCUGCGUAAAUCCGCCCCAUUUGUGUAAGGGUAGUGGGUCGAAUUCCGCUCA [NF-kB p65 aptamer]
- functional effect of the aptamer ([1]; position 3, TNF-α 20 ng/ml, increased GFP (P<0.01) and exon exclusion): active

Sequence: GAUCUUGAAACUGUUUUAAGGUUGGCCGAUC [NF-kB p50(2) aptamer]
- functional effect of the aptamer [4, 6]: active
- functional effect of the aptamer (NF-kB p50 (p50-DsRed)): active

Sequence: GCAUCCUGAAACUGUUUUAAGGUUGGCCGAUGC [NF-kB p50(1) aptamer]
- functional effect of the aptamer [4, 6]: active
- functional effect of the aptamer (NF-kB p50 (p50-DsRed)): active

Sequence: UCGGUUAGCAAUUUCAUAGGCCACACGGAUAUCGCAGGUAUCUAGCCGGA [beta-cateninΔ aptamer]
- functional effect of the aptamer [5]: not active
